In patent US11660265B2, “Method of rapidly achieving therapeutic concentrations of triptans for treatment of migraines and cluster headaches” (ZP Opco, Inc., priority 2018, dated 2023):
Some entries share one result that the patent states for a list of compounds. At least one structure is not confirmed: it was looked up by name or label, or the drawing left a doubt.

Chains of the proteins cited; added tags and fusions are not shown. Lines headed by an entry give the natural chain unless they say otherwise; changes in a name come on top.
UniProt P28221: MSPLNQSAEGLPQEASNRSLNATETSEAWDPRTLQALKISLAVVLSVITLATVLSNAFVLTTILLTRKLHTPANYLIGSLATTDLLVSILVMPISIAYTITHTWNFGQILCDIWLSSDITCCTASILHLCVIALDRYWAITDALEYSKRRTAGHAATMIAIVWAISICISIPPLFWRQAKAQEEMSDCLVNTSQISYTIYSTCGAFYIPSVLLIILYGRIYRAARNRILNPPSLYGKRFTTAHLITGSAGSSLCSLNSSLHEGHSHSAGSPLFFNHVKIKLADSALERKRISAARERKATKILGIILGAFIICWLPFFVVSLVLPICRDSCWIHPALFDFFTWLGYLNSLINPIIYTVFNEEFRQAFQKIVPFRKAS
UniProt P28222, whole entry: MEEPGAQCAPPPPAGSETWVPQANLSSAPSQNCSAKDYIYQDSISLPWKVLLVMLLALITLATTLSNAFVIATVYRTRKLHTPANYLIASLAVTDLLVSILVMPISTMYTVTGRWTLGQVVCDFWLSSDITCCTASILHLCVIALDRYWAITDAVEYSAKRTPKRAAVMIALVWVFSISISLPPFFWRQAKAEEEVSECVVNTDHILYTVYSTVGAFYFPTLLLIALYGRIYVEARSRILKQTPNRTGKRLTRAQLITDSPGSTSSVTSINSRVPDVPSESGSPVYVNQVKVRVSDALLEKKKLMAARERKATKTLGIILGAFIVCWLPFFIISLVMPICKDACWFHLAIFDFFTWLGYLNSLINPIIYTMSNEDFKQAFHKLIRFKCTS

Columns and labels:
[1] = target: T1, recombinant human 5-HT1D receptors (Homo sapiens, UniProt P28221); assay: Ligand-receptor binding kinetics, 3H-5-carboxamidotryptamine competition, CHO-K1 membranes; settings: P<0.05
T1 construct: expressed in transfected cells; host or cells: CHO-K1
Protocol: (§1) Membrane preparations were derived from transfected CHO-K1 cells expressing recombinant human 5-HT1B and 5-HT1D receptors. […] After incubating for various lengths of time, membranes were washed by filtration and residual ^3H counts were determined on a microplate scintillation counter. On-rate constant (kon), off-rate constant (koff), and equilibrium dissociation constant (KD) were determined using nonlinear regression on Prism 4 (GraphPad), and Xlfit (IDBM) software. The following formulae were used in calculating additional parameters using previously derived^2 pharmacokinetic data in healthy human volunteers. Residence time for each ligand on 5-HT1B and 5-HT1D receptors=1/koff.

[2] = target: T2, recombinant human 5-HT1B receptors (Homo sapiens, UniProt P28222); assay: as above; settings: P<0.05
T2 construct: expressed in transfected cells; host or cells: CHO-K1
Protocol: as §1

## CNCCc1c[nH]c2ccc(C[C@H]3COC(=O)N3)cc12 [N-desmethyl zolmitriptan]
[1]
  kon, times faster than for sumatriptan: 6-10 ×
[2]
  kon, times faster than for sumatriptan: 6-10 ×
